From ChEMBL document CHEMBL1127965, “Synthesis of novel monocyclic squalestatin analogues as potential inhibitors of squalene synthase” (Bioorg Med Chem Lett, 1994)

Biological target: T1, Squalene synthase (Rattus norvegicus, UniProt Q02769)
T1 sequence (Q02769 whole entry): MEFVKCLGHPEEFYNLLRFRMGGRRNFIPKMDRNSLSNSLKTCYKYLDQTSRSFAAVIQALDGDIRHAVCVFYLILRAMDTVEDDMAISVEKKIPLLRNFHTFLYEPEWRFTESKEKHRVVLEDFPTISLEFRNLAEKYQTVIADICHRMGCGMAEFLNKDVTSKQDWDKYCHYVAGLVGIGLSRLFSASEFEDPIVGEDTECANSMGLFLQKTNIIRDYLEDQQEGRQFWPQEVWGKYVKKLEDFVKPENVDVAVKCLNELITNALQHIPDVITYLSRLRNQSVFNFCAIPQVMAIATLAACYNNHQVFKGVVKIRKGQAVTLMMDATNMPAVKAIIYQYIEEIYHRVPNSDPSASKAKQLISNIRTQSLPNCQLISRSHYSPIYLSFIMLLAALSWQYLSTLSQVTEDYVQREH
Assay: In vitro inhibitory activity against rat liver squalene synthase

C=C(CCC12OC(C(=O)O)C(O)(C(=O)O)C(C(=O)O)(O1)[C@H](O)[C@H]2O)[C@@H](OC(C)=O)[C@H](C)Cc1ccccc1 (stereo partly specified)
IC50: 6 nM
